This is one part of the list. Further columns of the screen follow, without active or inactive calls. Compounds called inactive in the main read-out are mostly missing here. Potencies come from curve fits of mixed quality, noted in brackets.
assay: IkB Signaling; conditions: ABC-DLBCL IkBa-CBG/CBR dual luciferase ratio (green luciferase fused to IkBa over red control in OCI-Ly3 lymphoma cells), 4 h; measured here: control luc red channel unless noted
Summary of the method: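 In this assay, an IκBα–CBG68 fusion accumulates when IKK-driven degradation is blocked; native CBR normalizes for cell number. OCI-Ly3 cells were treated 4 h with compound and doxycycline, then green and red light read after Chroma-Glo addition.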

| Compound | AC50 |
| --- | --- |
| CC1CN(C(=O)N2CCC(C(=O)NCCCc3ccccc3)CC2)c2cc(Cl)ccc2O1 (configuration not stated) | 25.1 µM [falling, single point] |
| CCOc1ccc(CNC(=O)c2ccc3oc(=O)n(Cc4ccccc4)c3c2)cc1 | 15.8 µM [falling, partial curve] |
| CC(C)c1c(C#N)c(N)nc(SCC(=O)c2cc3ccccc3oc2=O)c1C#N | 3.98 µM [falling, partial curve] |
| COc1ccc(CCNC(=O)CCc2c(C)nc3c4c(C)cc(C)nc4nn3c2C)cc1OC | 20 µM [falling, single point] |
| CC1(C)Cc2c(sc3c2c(=N)n(Cc2ccco2)c(=O)n3Cc2ccccc2)CO1 | 20 µM [falling, single point] |
| Cc1ccc(Cn2nnc3c(=O)[nH]c(C4CCN(C(=O)Cc5ccccc5F)CC4)nc32)cc1 | 39.8 µM [falling, single point] |
| CC(=O)c1c(C)oc2ccc(N(C(=O)Oc3ccccc3)S(=O)(=O)c3ccc(Cl)cc3)cc12 | 31.6 µM [falling, single point] |
| CCc1cccc(NS(=O)(=O)c2c(C)[nH]c(=O)[nH]c2=O)c1 | 3.98 µM [falling, partial curve] |
| O=C(Nc1ccc(Nc2ccccc2)cc1)c1ccc(Br)o1 | 12.6 µM [falling, partial curve] |
| COc1ccc2c(c1)cc(CNc1ccc(OC)c(OC)c1)c(=O)n2CC(=O)Nc1ccccc1C | 25.1 µM [falling, partial curve, poor fit] |
| CCCNc1nc2c(c(=O)n(C)c(=O)n2C)n1CCc1ccccc1 | 15.8 µM [falling, partial curve] |
| Cc1nc2ccccc2c(=O)n1/N=C/c1cn(-c2ccccc2)nc1-c1cccs1 | 12.6 µM [falling, partial curve] |
| Cc1ccc(S(=O)(=O)Nc2cccc(-c3ccc(N4CCC(C)CC4)nn3)c2)s1 | 10 µM [falling, partial curve] |
| Cc1ccc(NCc2cccn2-c2nnc(N3CCC(C(=O)NCCc4ccc(Cl)cc4)CC3)s2)cc1 | 7.94 µM [falling, partial curve] |
| CC(C)(C)NC(=O)COC(=O)c1snc(C(=O)NC2CCCCC2)c1N | 3.98 µM [falling, partial curve] |
| CCc1nn2c(=O)cc(COC(=O)c3cccc(NC(=O)CCc4ccccc4)c3)nc2s1 | 0.398 µM [falling, full curve] |
| COc1ccccc1CNC(=O)C1CCN(c2nc3ccc(Cl)cc3[nH]2)CC1 | 31.6 µM [falling, single point] |

Four structures from above, arranged by molecular weight, smallest number first:

| Compound | AC50 |
| --- | --- |
| CCc1cccc(NS(=O)(=O)c2c(C)[nH]c(=O)[nH]c2=O)c1 | 3.98 µM [falling, partial curve] |
| COc1ccccc1CNC(=O)C1CCN(c2nc3ccc(Cl)cc3[nH]2)CC1 | 31.6 µM [falling, single point] |
| CC(C)c1c(C#N)c(N)nc(SCC(=O)c2cc3ccccc3oc2=O)c1C#N | 3.98 µM [falling, partial curve] |
| COc1ccc(CCNC(=O)CCc2c(C)nc3c4c(C)cc(C)nc4nn3c2C)cc1OC | 20 µM [falling, single point] |
